Source: the supplement of paper PMC3334620
Over roughly 33,000 sequences, “E-score (-0.5 to 0.5)” has its median near -0.0034; the highest 2% begin near 0.25. The list shows a part of the results.

biological target: T1, Yap3 (UniProt P38749); experiment: PBM E-score (8-mer binding enrichment) (E-score (-0.5 to 0.5)); higher = stronger / more preferred TF binding; conditions: protein concentration: 100 nM; construct: GST-full length
T1 sequence: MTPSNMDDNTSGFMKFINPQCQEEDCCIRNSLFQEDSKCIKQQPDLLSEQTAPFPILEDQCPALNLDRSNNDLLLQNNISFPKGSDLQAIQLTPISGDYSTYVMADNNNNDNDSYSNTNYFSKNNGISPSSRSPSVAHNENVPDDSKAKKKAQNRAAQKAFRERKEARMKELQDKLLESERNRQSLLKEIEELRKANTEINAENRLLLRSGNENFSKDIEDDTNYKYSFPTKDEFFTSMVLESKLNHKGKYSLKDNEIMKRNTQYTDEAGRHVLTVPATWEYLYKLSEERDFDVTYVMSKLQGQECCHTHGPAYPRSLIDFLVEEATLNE
Experimental: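 Universal 'all 10-mer' protein binding microarrays (Agilent AMADID 015681) probed with GST-tagged S. cerevisiae TFs (full-length or DBD) made by in vitro transcription/translation (PURExpress), about 100-200 nM. Bound TF was detected with fluorescent anti-GST. Each ungapped 8-mer (which stands for itself and its reverse complement) is scored by the PBM enrichment score (E-score), a modified Wilcoxon-Mann-Whitney statistic from -0.5 to +0.5, computed with the Universal PBM Analysis Suite. Scale: above 0.35 generally sequence-specific binding.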

Sequence | PBM E-score
CTGATGAA | -0.112
TGTAATAA | 0.242
ATTCGACC | -0.185
CGCGTTCC | -0.00554
GTTTGCGA | 0.113
CGCCGAAC | 0.118
TCACAAGA | 0.0103
ATGCGTAC | 0.0677
CGCAGCCA | -0.129
CTCCTAAC | -0.0276
ACCGAGAA | 0.166
ACTCTGCC | -0.104
CTGTTTAC | 0.0799
ATGACGGA | -0.0133
GAAGCATA | -0.0472
GCTATTTA | 0.0985
GAGTGGGA | -0.199
CCCATTAA | -0.108
CCACGCGG | -0.19
AATCATCA | 0.168
CATGGAAA | 0.236
ACAGCAGG | -0.126
AAAAGACA | 0.227
ACGCACTG | -0.0882
GACCGTCC | -0.231

Sequence | PBM E-score
AACACGTA | 0.142
AACGTAGG | -0.06
GCCAGGAA | 0.0131
AGTGACAT | 0.1
GAGCGCTA | 0.0655
GAGTAGAC | 0.0672
CCAAACAG | 0.0533
CAAAGCTC | -0.278
CCAGTTAA | 0.143
AATTCATA | 0.242
GTTATCCA | 0.0968
CCATAGAC | 0.00214
AAGCCCAT | -0.0713
AAGGCCAA | -0.17
AACATCAT | 0.174
CCTATTGA | 0.0457
AGACCTAT | 0.104
CGCGAAAG | 0.00871
CGGGTCAG | -0.128
GATGAGAC | 0.118
CTTACTAA | 0.443
GCTCACCC | -0.146
CTGCCTTC | -0.071
GCGCAAGA | 0.152
TACGATCA | 0.0973

Sequence | PBM E-score
AGTGAATG | 0.13
ATGTCTTG | 0.0386
AAGCGAAG | -0.107
ACAATCAT | 0.0973
CGTGTATA | 0.134
ATAGCGCA | 0.0674
GAGCTAGA | -0.166
AACAAAAG | 0.164
GGCGGAAC | -0.132
AGGCGTCC | -0.0921
CCATGGCC | -0.193
CATCCAGC | -0.0989
CTCTGAGA | 0.0651
CCCTGAAC | 0.109
GACTCTTA | 0.141
GCTTGTAC | 0.117
ACCGAACA | 0.0988
CCGGAGCA | -0.129
CAATTGGC | 0.179
ATTCATAG | 0.205
AATGTAGA | -0.0455
AGCTTGCG | -0.219
CTGTATAA | 0.13
AGAGTTAG | -0.0808
TGTACAAA | 0.196

Quoted from the listing:
Entry for CCTATTGA under PBM E-score: 0.0457
Entry for CCCATTAA under PBM E-score: -0.108
Entry for GAGTGGGA under PBM E-score: -0.199

The list goes on.

Sequence | PBM E-score
AGCTCTGC | -0.215
CGTATGCC | -0.167
CTCAAAAG | 0.00523
TACCGCCA | 0.0501
GACATAGA | -0.00498
AAAGTGCG | 0.106
TTAGCAAA | 0.117
GTATCCAC | 0.00896
GCGCCAGA | -0.258
TCCATTAA | 0.0027
ATTGCCCA | 0.0188
CTGAGAAG | -0.133
TCGTGTAA | 0.0514
AGTCATCG | 0.0401
GACGGAGA | -0.0696
ACTAACCC | 0.0194
AAATTAAT | 0.229
GAGCCGAC | -0.337
CGCCTATA | 0.0163
CATATGGA | 0.0733
CCTACACC | 0.00957
GCCTTAGA | -0.118
TGACGCCA | 0.0476
CACTCGGC | 0.095
AACTACTC | 0.093

Sequence | PBM E-score
CCTCGGGA | -0.0911
AGTCTTTC | 0.0182
CCGGTAGG | -0.166
GCTTCTCA | -0.0894
AAGCGAAT | 0.15
ATGCACCA | -0.0699
AACTTTAC | 0.0915
CATAATAG | 0.189
CGGGCAAC | -0.264
GTACCACA | 0.0448
GTTTTTTA | 0.202
ACGCCTGG | -0.102
AGCTTCAT | 0.103
CGACCCGC | -0.22
CCATATCA | 0.0903
AGACGAAA | 0.147
CCAGCGCC | -0.194
CGAGATCG | -0.011
GATCCCGC | -0.00636
AATCCCAT | 0.0573
TAATTGAA | 0.0444
CCGAGTCC | -0.199
AAGATGCA | 0.128
CGCCTTTC | -0.202
GGATACCC | -0.142

Sequence | PBM E-score
CGCGTCCA | -0.0281
ATAAATGA | 0.217
GGAGAAAA | 0.0507
TCATCTAA | -0.0652
AGATGACA | 0.0699
AATCAGAC | 0.0969
CAGAGCTG | -0.224
CTGGGAAA | 0.0682
AGTCATAA | 0.14
GCCGTAAA | 0.209
GCCATGCA | -0.0815
ATTCTTTA | 0.137
CAATCGTG | -0.0597
CCGGGGCG | -0.215
CATCCACG | 0.0556
TATCCGGA | 0.0257
CCACAACG | -0.0655
GGTCGAAC | -0.117
AAGGTCGA | 0.0791
GGTAGTAA | 0.0347
CACCGTCA | -0.0873
AGATTGCG | 0.0819
GCGCGCTA | 0.257
GTATCTCA | 0.167
CGCAAACA | 0.199

Given as labelled records: part of the list above
CTCTGAGA
  PBM E-score = 0.0651
CCCTGAAC
  PBM E-score = 0.109
GACTCTTA
  PBM E-score = 0.141
GCTTGTAC
  PBM E-score = 0.117

(cont.)

Sequence | PBM E-score
CTTATAAA | 0.187
ACGACCGC | -0.245
CAAATAGC | 0.0993
CTCCTGTA | 0.102
CAGTGGCC | -0.186
CCCCTTGC | -0.281
ACGGAACG | 0.116
ACTAGTTA | 0.114
CCTAATAC | 0.122
GTCTAGTA | 0.132
ATGGCTGC | 0.0187
TCAGAAGA | -0.153
GTGTACAA | 0.191
AAATTGCG | 0.0074
AATAGACA | -0.0177
AGGAGAAA | 0.00362
CTCTATGA | -0.038
GACCACTA | 0.102
ACCGGAGT | -0.204
GGCTTTAC | -0.0301
CAGTGCCA | -0.233
AGGTTTGG | -0.0823
